# Laboratory results from US20230172877A1, “METABOLITES RELEASED FROM APOPTOTIC CELLS ACT AS NOVEL TISSUE MESSENGERS” (University of Virginia Patent Foundation, priority 2020, published 2023).
# Tested on: Jurkat T cells
# Experiment: Untargeted metabolomics of supernatants and cell pellets of apoptotic (UV) versus live Jurkat T cells
# Format: cell-based, human
# Settings: for Fold Change (FAp/FL): Jurkat UV metabolite release, apoptotic versus live supernatant, 4 hours after apoptosis induction; for Fold Change (FAp/FL)-Cell / Fold Change (FAp/FL)-Supe: Jurkat T cells, UV, apoptotic versus live; for Fold Change (FAp/FL)-Cell: cell pellet decrease; for Fold Change (FAp/FL)-Supe: supernatant enrichment
molecule,measurement,setting,value
Nc1nc2nc[nH]c2c(=O)[nH]1 [guanine],Fold Change (FAp/FL),,203.22
CC(=O)N1CCC[C@H]1C(=O)O [N-acetylproline],Fold Change (FAp/FL),,2.15
CSCC[C@H](NC(=O)CC[C@H](N)C(=O)O)C(=O)O [gamma-glutamylmethionine],Fold Change (FAp/FL)-Cell,,0.45
same,Fold Change (FAp/FL)-Supe,,2.02
same,Fold Change (FAp/FL),,2.02
"O=c1ccn([C@@H]2O[C@H](COP(=O)(O)O)[C@@H](O)[C@H]2O)c(=O)[nH]1 [uridine 5′-monophosphate (UMP), uridine 5′-monophosphate]",Fold Change (FAp/FL)-Cell,,0.37
same,Fold Change (FAp/FL)-Supe,,9.39
same,Fold Change (FAp/FL),,9.39
O=c1[nH]cnc2nc[nH]c12 [hypoxanthine],Fold Change (FAp/FL)-Cell,,0.47
same,Fold Change (FAp/FL)-Supe,,3.60
same,Fold Change (FAp/FL),,3.60
O=C(O)[C@H](O)[C@H](O)[C@H](O)CO [ribonate],Fold Change (FAp/FL)-Cell,,0.20
same,Fold Change (FAp/FL)-Supe,,1.31
same,Fold Change (FAp/FL),,1.31
CC(=O)N[C@@H](CCC(N)=O)C(=O)O [N-acetylglutamine],Fold Change (FAp/FL)-Cell,,0.43
same,Fold Change (FAp/FL)-Supe,,3.45
same,Fold Change (FAp/FL),,3.45
"O=P(O)(OC[C@H](O)CO)OC1[C@H](O)[C@H](O)C(O)[C@H](O)[C@H]1O (some centres unmarked) [glycerophosphoinositol*, glycerophosphoinositol]",Fold Change (FAp/FL),,16.30
CC(=O)N[C@H]1[C@@H](OP(=O)(O)OP(=O)(O)OC[C@H]2O[C@@H](n3ccc(=O)[nH]c3=O)[C@H](O)[C@@H]2O)O[C@H](CO)[C@@H](O)[C@@H]1O [UDP-N-acetylglucosamine],Fold Change (FAp/FL)-Cell,,0.59
same,Fold Change (FAp/FL)-Supe,,15.14
same,Fold Change (FAp/FL),,15.14
O=C(O)CC(O)C(=O)O (centres unmarked) [malate],Fold Change (FAp/FL)-Cell,,0.58
same,Fold Change (FAp/FL)-Supe,,8.33
same,Fold Change (FAp/FL),,8.33
O=C(O)CCC(O)C(=O)O (centres unmarked) [2-hydroxyglutarate],Fold Change (FAp/FL)-Cell,,0.07
same,Fold Change (FAp/FL)-Supe,,3.06
same,Fold Change (FAp/FL),,3.06
N[C@@H](CS)C(=O)O [cysteine],Fold Change (FAp/FL)-Cell,,0.60
same,Fold Change (FAp/FL)-Supe,,1.78
same,Fold Change (FAp/FL),,1.78
N-acetylglucosamine/N-acetylgalactosamine,Fold Change (FAp/FL),,6.04
CCCCCCCCCCCCCCCCCC(=O)OC[C@@H](O)COP(=O)([O-])OCC[N+](C)(C)C [1-stearoyl-GPC (18:0)],Fold Change (FAp/FL)-Cell,,0.53
same,Fold Change (FAp/FL)-Supe,,1.21
"CC(O)(CC(=O)O)CC(=O)O [3 -hydroxy-3 -methylglutarate, 3-hydroxy-3-methylglutarate]",Fold Change (FAp/FL)-Cell,,0.10
same,Fold Change (FAp/FL)-Supe,,1.70
same,Fold Change (FAp/FL),,1.70
NC(=O)c1cccnc1 [nicotinamide],Fold Change (FAp/FL)-Cell,,0.17
same,Fold Change (FAp/FL)-Supe,,1.25
same,Fold Change (FAp/FL),,1.25
NCCCC[C@H](N)C(=O)O [lysine],Fold Change (FAp/FL),,1.22
N[C@@H](CO)C(=O)O [serine],Fold Change (FAp/FL)-Cell,,0.68
same,Fold Change (FAp/FL)-Supe,,1.26
same,Fold Change (FAp/FL),,1.26
CC(=O)N[C@@H](CCC(=O)O)C(=O)O [N-acetylglutamate],Fold Change (FAp/FL)-Cell,,0.12
same,Fold Change (FAp/FL)-Supe,,3.30
same,Fold Change (FAp/FL),,3.30
NCCCCN [putrescine],Release of metabolite into apoptotic cell supernatants (in words),"Jurkat T cell supernatants, live and apoptotic conditions",not released
"Nc1ncnc2c1ncn2[C@@H]1O[C@H](COP(=O)(O)O)[C@@H](O)[C@H]1O [adenosine 5′-monophosphate (AMP), adenosine 5′-monophosphate]",Fold Change (FAp/FL)-Cell,,0.13
same,Fold Change (FAp/FL)-Supe,,14.95
same,Fold Change (FAp/FL),,14.95
CC(=O)N[C@H](C(=O)O)[C@@H](C)O [N-acetylthreonine],Fold Change (FAp/FL)-Cell,,0.16
same,Fold Change (FAp/FL)-Supe,,4.17
same,Fold Change (FAp/FL),,4.17
OC[C@H]1O[C@@H](n2cnc3c(O)ncnc32)C[C@@H]1O [2′-deoxyinosine],Fold Change (FAp/FL)-Cell,,0.67
same,Fold Change (FAp/FL)-Supe,,2.38
same,Fold Change (FAp/FL),,2.38
